The target of this assay is TOSO (UniProt O60667). Kind of assay: flow cytometry on TOSO-positive and TOSO-negative tumor cells, detected with PE-conjugated anti-human-IgG1 antibody.

By UniProt entry, the sequences of proteins in these tests, tags left out. Where a name states a change or a piece, a line headed by the entry shows the natural chain unless it says otherwise.
UniProt O60667: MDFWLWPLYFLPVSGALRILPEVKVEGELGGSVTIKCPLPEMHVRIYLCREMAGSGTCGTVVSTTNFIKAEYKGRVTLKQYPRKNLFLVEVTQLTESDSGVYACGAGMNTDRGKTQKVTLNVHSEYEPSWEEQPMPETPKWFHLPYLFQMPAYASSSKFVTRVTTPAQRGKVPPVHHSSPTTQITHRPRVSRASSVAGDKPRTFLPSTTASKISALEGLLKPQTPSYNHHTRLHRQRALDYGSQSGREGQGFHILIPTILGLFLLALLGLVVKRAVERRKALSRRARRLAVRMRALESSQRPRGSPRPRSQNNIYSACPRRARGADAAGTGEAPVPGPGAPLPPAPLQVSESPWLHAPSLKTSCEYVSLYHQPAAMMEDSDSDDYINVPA

Results are given in words; binding and its absence hold for the method and conditions named. Binding can be weak; no strength is given. Where a sequence is shown, tags or fusion partners need not be part of it.

B1: anti-TOSO scFv-Fc fusion protein (Fc fusion, not shown: a dimerising Fc or GST)
chain: EVQLVETGGGLVQPGKSLELTCATSGFTFNTAWMHWVRQSPDKRLEWIARIKDTSNNYATDYVESMKGRFTISRDDSKGSVNLQMNSLKEEDTATYYCTTDFYDGTYYWNYWGQGVMVTVSSGGGGSGGGGSGGGGSSYELIQPPSAAVTLGNTVSLTCVGDELPKRYAYWYQQKPDQSIVRVIYEDSVRPPGISDRFSGSSSGTTATLTIRDAQNEDEADYYCQSTYGDDKLYIFGGGTKLTVLG
Consider B1, for which the binding result was “binds”.

(Values after patent US20160347854A1.)
